Laboratory results published in the M2OR odorant receptor database.
Only a part is listed here, and it is no random draw. The calls were merged from several studies; some rest on single wells. The list shows a part of the results.

Tests used:
Details in all cases: stereoisomer not certain
OR4X1 = system: T1, OR4X1
T1 sequence (whole entry): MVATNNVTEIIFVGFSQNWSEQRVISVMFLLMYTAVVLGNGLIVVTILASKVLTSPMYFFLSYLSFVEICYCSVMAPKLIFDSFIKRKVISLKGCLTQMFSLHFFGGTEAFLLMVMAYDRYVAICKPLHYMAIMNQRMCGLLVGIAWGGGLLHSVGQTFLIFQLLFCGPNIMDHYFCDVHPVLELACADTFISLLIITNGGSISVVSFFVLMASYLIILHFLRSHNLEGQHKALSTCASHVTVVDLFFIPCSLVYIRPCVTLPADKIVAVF
How it was run: (§1)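 Whether a receptor–molecule pair is responsive (active) rests on the original authors' judgment that its measured signal was statistically different from baseline. Pairs without that judgment are non-responsive (inactive). Sources used varied assay methods, commonly transient luciferase assays in mammalian cell lines.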

OR4X2 (Homo sapiens) = molecular target: T2, OR4X2 (Homo sapiens) (UniProt Q8NGF9)
T2 sequence (whole entry): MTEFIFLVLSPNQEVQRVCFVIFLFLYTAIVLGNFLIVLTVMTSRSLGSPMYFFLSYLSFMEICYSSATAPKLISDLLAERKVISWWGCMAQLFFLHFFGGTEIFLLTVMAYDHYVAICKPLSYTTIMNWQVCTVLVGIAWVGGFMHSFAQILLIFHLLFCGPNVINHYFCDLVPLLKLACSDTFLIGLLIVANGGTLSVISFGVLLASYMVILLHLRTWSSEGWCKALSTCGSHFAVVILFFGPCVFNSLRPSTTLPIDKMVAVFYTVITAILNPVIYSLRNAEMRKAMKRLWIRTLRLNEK
How it was run: as §1

OR51A2 (Homo sapiens) = molecular target: T3, OR51A2 (Homo sapiens) (UniProt Q8NGJ7)
T3 sequence (whole entry): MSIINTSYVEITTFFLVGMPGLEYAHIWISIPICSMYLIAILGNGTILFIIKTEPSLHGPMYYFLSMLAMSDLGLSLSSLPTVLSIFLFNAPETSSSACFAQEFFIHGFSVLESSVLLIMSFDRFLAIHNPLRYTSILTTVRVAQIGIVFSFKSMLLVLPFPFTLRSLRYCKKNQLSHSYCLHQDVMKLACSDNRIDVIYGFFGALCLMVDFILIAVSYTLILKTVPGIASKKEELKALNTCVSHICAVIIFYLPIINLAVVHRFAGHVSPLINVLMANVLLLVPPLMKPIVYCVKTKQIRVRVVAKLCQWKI
How it was run: as §1

OR51B2 (Homo sapiens) = molecular target: T4, OR51B2 (Homo sapiens) (UniProt Q9Y5P1)
T4 sequence (whole entry): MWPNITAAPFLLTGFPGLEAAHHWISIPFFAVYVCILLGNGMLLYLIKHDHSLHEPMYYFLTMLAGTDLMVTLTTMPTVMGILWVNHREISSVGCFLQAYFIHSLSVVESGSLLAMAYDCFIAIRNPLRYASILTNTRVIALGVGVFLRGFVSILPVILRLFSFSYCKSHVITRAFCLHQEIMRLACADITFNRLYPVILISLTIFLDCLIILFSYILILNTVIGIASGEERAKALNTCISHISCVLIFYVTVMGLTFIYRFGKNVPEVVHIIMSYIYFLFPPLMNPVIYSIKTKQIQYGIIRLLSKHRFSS
How it was run: as §1

OR51D1 (Homo sapiens) = molecular target: T5, OR51D1 (Homo sapiens) (UniProt Q8NGF3)
T5 sequence (whole entry): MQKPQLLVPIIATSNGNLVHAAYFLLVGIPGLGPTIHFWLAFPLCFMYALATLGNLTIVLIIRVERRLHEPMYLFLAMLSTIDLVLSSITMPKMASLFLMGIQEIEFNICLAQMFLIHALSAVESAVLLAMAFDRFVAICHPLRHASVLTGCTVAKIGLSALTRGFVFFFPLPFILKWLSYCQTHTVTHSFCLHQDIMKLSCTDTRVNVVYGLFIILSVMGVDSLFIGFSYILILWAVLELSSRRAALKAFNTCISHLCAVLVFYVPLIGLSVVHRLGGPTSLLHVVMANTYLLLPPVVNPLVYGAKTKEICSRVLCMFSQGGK
How it was run: as §1

OR51E1 (Homo sapiens) = molecular target: T6, OR51E1 (Homo sapiens) (UniProt Q8TCB6)
T6 sequence (whole entry): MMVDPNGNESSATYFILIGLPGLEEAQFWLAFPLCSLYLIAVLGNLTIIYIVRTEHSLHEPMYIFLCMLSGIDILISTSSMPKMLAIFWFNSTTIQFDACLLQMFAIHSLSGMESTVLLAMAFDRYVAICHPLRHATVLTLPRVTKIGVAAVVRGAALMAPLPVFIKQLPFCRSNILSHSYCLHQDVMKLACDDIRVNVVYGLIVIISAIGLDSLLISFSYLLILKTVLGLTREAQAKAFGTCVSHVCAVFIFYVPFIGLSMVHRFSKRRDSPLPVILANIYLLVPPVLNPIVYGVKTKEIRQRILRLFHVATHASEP
How it was run: as §1

OR51E2 (Homo sapiens) = molecular target: T7, OR51E2 (Homo sapiens) (UniProt Q9H255)
T7 sequence (whole entry): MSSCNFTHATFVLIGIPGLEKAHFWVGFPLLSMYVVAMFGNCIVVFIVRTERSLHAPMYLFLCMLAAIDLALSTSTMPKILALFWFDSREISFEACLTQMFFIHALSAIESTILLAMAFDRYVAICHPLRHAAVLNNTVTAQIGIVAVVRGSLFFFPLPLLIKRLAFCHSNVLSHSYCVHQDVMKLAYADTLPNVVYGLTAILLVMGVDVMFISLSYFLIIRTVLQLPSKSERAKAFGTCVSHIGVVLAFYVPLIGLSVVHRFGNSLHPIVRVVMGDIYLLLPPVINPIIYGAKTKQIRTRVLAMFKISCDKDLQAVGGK
How it was run: as §1

OR51G1 (Homo sapiens) = molecular target: T8, OR51G1 (Homo sapiens) (UniProt Q8NGK1)
T8 sequence (whole entry): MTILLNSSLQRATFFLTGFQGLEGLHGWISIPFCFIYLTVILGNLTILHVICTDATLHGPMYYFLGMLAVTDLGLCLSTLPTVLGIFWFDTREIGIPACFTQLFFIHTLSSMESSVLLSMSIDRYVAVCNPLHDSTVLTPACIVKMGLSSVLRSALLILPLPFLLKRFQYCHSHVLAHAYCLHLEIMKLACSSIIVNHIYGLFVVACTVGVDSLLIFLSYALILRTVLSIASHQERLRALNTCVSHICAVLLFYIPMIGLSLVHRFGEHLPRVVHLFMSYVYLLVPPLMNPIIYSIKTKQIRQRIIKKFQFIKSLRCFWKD
How it was run: as §1

OR51H1 (Homo sapiens) = molecular target: T9, OR51H1 (Homo sapiens) (UniProt Q8NH63)
T9 sequence (whole entry): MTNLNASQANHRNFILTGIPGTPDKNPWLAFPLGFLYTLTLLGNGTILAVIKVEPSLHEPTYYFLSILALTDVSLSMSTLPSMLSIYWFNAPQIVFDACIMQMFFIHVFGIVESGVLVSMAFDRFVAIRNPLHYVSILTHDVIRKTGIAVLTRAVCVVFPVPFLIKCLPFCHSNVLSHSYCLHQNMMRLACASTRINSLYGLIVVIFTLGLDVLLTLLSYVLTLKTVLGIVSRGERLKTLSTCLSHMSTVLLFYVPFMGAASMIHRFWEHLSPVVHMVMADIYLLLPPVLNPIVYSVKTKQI
How it was run: as §1

OR51I1 (Homo sapiens) = molecular target: T10, OR51I1 (Homo sapiens) (UniProt Q9H343)
T10 sequence (whole entry): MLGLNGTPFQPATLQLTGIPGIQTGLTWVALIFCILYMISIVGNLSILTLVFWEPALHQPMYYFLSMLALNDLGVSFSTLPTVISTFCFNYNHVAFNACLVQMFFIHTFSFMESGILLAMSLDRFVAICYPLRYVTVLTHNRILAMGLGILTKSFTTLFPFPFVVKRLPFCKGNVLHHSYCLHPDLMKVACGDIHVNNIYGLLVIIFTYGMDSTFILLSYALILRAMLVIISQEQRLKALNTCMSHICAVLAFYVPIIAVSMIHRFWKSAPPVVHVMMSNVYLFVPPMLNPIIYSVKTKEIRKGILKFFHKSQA
How it was run: as §1

Measured: odorant receptor agonist call;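 note: active if original authors judged signal statistically different from baseline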

CS
inactive: OR4X1 | OR4X2 (Homo sapiens) | OR51A2 (Homo sapiens) | OR51B2 (Homo sapiens) | OR51D1 (Homo sapiens) | OR51E1 (Homo sapiens) | OR51E2 (Homo sapiens) | OR51G1 (Homo sapiens) | OR51H1 (Homo sapiens) | OR51I1 (Homo sapiens)

CCCCOC(C)=O
inactive: OR4X1 | OR4X2 (Homo sapiens) | OR51A2 (Homo sapiens) | OR51B2 (Homo sapiens) | OR51D1 (Homo sapiens) | OR51E1 (Homo sapiens) | OR51E2 (Homo sapiens) | OR51G1 (Homo sapiens) | OR51H1 (Homo sapiens) | OR51I1 (Homo sapiens)

CCC(C)=O
inactive: OR4X1 | OR4X2 (Homo sapiens) | OR51A2 (Homo sapiens) | OR51B2 (Homo sapiens) | OR51D1 (Homo sapiens) | OR51E1 (Homo sapiens) | OR51E2 (Homo sapiens) | OR51G1 (Homo sapiens) | OR51H1 (Homo sapiens) | OR51I1 (Homo sapiens)
